Consider 66 compounds from PubChem BioAssay AID602441 (National Center for Advancing Translational Sciences (NCATS), 2012).

Hit rate of the full screen: of about 1,300 compounds, fewer than 10 were called active. Another 9% or so got no clear call; they are omitted. Calls follow the shape of the dose curve; as a rule, active = well fitted curve in the direction sought with a large enough effect; inconclusive = small, poorly fitted or top-dose-only effect, or another doubt; inactive = no such curve, though single readings can be large or run the other way. This is one part of the list.

A short description of the assay: qHTS for antagonists of the Thyroid Stimulation Hormone Receptor: Hit Validation in Parental Cell Line. Also: 0% is about no effect. Conditions: parental HEK293 cells lacking TSHR, counter-screen; series mostly up to 56.9 µM; activity change, negative = inhibition: at the top concentration. The method, boiled down: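 Counterscreen in untransfected parental HEK-EM 293 cells. Lysate cAMP displaces cAMP-d2 from cryptate-tagged anti-cAMP antibody, and homogeneous TR-FRET is read at 665 nm with 337 nm excitation after stimulation.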
`O=C1CSc2nc3ccccc3n21`: the “activity change, negative = inhibition” value is inactive: 4.76%.
For `COc1ccc2nc(C)cc(N3CCN(S(=O)(=O)c4ccccc4F)CC3)c2c1` the value was inactive: -1.34%; for `O=C(Nc1cc(Sc2nc3ccccc3s2)cc([N+](=O)[O-])c1)c1ccccc1F`, inactive: -0.575%; for `CC(Oc1ccc(Cl)cc1Cl)c1nc(-c2ccc(NC(=O)c3cccnc3)cc2)no1` (stereo unspecified), inactive: -8.59%.
For `O=C(c1ccco1)N1N=C(C2CCCCC2)CC1(O)C(F)(F)F` (stereo unspecified) the value was inactive: 6.07%; for `O=C(O)c1ccc(CNC(=O)c2ccc3c(c2)C(=O)N(Cc2cccnc2)C3=O)cc1`, inactive: 6.1%; for `Cc1ccccc1-n1nnnc1SC1CCOC1=O` (stereo unspecified), inactive: 6.33%.
For `Cc1nn(Cc2ccccc2)c(C)c1NC(=O)c1noc2c1CCc1ccccc1-2` the value was inactive: 4.71%; for `COc1ccc2nc(NC(=O)c3ccccc3[N+](=O)[O-])sc2c1`, inactive: -3.72%; for `O=C(Nc1nc(-c2ccc(Cl)cc2Cl)cs1)c1ccc(OCC2CCCO2)cc1` (stereo unspecified), inactive: 4.62%.
For `CCOc1ccc(NS(=O)(=O)c2cc(NC(=O)c3cccc(C)c3)ccc2Cl)cc1`, the “activity change, negative = inhibition” value is inactive: 3.25%.
For `O=C(Nc1ccccc1)c1ccc(Br)c(S(=O)(=O)Nc2cccnc2)c1` the value was inactive: -0.476%.
Then `O=C(NC1CCCCC1)c1cc(-c2ccccc2O)on1`, with inactive: -7.24%.
For `CC(C)OCCCn1c(=O)c2ccccc2n2c(CCC(=O)NC3CCN(Cc4ccccc4)CC3)nnc12` the value was inactive: 4.01%.
Turning to `CSc1nc(N)nc(SCC(=O)Nc2ccc(Cl)cc2)c1C#N`, the “activity change, negative = inhibition” value is inactive: -1.2%.
Then `Cc1nnc(Sc2cc(NCCCO)c([N+](=O)[O-])c3nonc23)s1`, with inactive: 3.76%.
Then `C#C[C@]1(OC(C)=O)CCC2C3CCC4=CC(=O)CC[C@@H]4C3CC[C@@]21C` (stereo partly specified), with inactive: -2.83%; and `O=C(COc1cccc2ccccc12)Nc1ccc(Cl)cc1C(=O)O`, with inactive: 3.1%; and `CCN(CC)S(=O)(=O)c1cccc(NC(=O)CNc2cccc(S(=O)(=O)N3CCOCC3)c2)c1`, with inactive: 0.271%.
For `Cc1ccc(O)c(N=Cc2cc(Cc3ccccc3)cc([N+](=O)[O-])c2O)c1` the value was inactive: 1.98%.
Take `Cc1csc2ncnc(N3CCN(S(=O)(=O)c4cccc(C(F)(F)F)c4)CC3)c12`: the “activity change, negative = inhibition” value is inactive: -0.152%.
On to `O=C1NC(=O)/C(=C/c2ccccc2Oc2ccc(Cl)cc2)S1`, for which the “activity change, negative = inhibition” value was inactive: 0.88%.
`Cc1cc2c(NCCc3ccccc3)ncnc2s1`: the “activity change, negative = inhibition” value is inactive: 3.32%.
Then `CSc1cccc(NC(=O)CN2C(=O)COc3ccc(S(=O)(=O)N4CCOCC4)cc32)c1`, with inactive: 4.44%; and `Cc1cc(OCC(=O)Nc2cccc(S(=O)(=O)N3CCCC3)c2)ccc1Cl`, with inactive: -7.7%.
Then `COc1ccc(-c2csc(/C(C#N)=C\c3ccc(O)c([N+](=O)[O-])c3)n2)cc1OC`, with inactive: -6.65%; and `COc1ccc(OC)c2c1C(=O)C(Cl)=C(Cl)C2=O`, with inactive: -19.3%.
Then `C#CCn1c(=NC(=O)c2cccs2)sc2cccc(OC)c21`, with inactive: 1.74%; and `CCN(CC)S(=O)(=O)c1cccc(C(=O)Nc2nc3cc4c(cc3s2)OCCO4)c1`, with inactive: -8.5%.
Turning to `CSc1nc(-c2ccc(Cl)cc2Cl)[nH]c(=O)c1C#N`, the “activity change, negative = inhibition” value is inactive: 4.62%.
For `COc1ccc(CCNC(=O)c2ccc(Cl)c(S(=O)(=O)N3CCCCCC3)c2)cc1` the value was inactive: -4.19%.
Then `CC1CCN(c2ccccc2NC(=O)c2cc([N+](=O)[O-])ccc2N2CCOCC2)CC1`, with inactive: -2.88%; and `N#Cc1c(SCc2c(Cl)cccc2Cl)nc(N)[nH]c1=S`, with inactive: 1.4%; and `CC(=O)N1c2ccc(S(=O)(=O)NCCC(=O)Nc3cccc(Cl)c3)cc2CC1C` (stereo unspecified), with inactive: 2.87%.
Then `O=C1c2cccnc2C(=O)N1Cc1ccc(S(=O)(=O)N2CCN(c3ccc(Cl)cc3)CC2)cc1`, with inactive: 2.04%.
For the compound `Cc1ccc(CNC(=O)CCNC(=O)N2CCn3c2nc2ccccc23)cc1`, the “activity change, negative = inhibition” value was inactive: 0.477%.
Regarding `Cc1nc2ccccc2n1CCOc1ccccc1`, the “activity change, negative = inhibition” value is inactive: 0.231%.
Then `C[C@@H](NC(=O)[C@@H]1Cc2ccccc2CN1)C(=O)NC1CCCCC1`, with inactive: 2.93%.
With `O=C(OCn1ncc(Cl)c(Cl)c1=O)c1cccc(C(F)(F)F)c1`, the “activity change, negative = inhibition” value was inactive: 1.4%.
For `CCc1ccc(N/C(SCc2cccc(F)c2)=C(/C#N)C(=O)NCc2ccco2)cc1` the value was inactive: 1.73%.
Then `CC(=O)Oc1c(C)cc(Cl)cc1C(=O)Nc1ccc([N+](=O)[O-])cc1Cl`, with inactive: -8.76%; and `COc1ccc(-c2cc(-c3ccccc3)c(C#N)c(S(C)=O)n2)cc1` (stereo unspecified), with inactive: -7.49%.
For `COc1cccc(C(=O)/C=C/Nc2ccc(S(=O)(=O)Nc3cccc(C(C)=O)c3)cc2)c1` the value was inactive: -5.83%; for `Brc1cc2c(cc1/C=N/Nc1nc(N3CCOCC3)nc(N3CCOCC3)n1)OCO2`, inactive: -2.06%; for `CCc1ccc(-c2nnn(CCC(=O)OC)n2)cc1`, inactive: 3.61%.
On to `Cc1ncsc1CCOC(=O)C1C2CC3CC(C2)CC1C3` (stereo unspecified), for which the “activity change, negative = inhibition” value is inactive: 1.06%.
Then `Cc1ccc(CN2C(=O)c3ccccc3Sc3ccc(C(=O)NCCN4CCOCC4)cc32)cc1`, with inactive: -2.87%; and `Cc1noc(C)c1COc1ccccc1C(=O)N(C)Cc1ccc(C(C)(C)C)cc1`, with inactive: -3.32%; and `Cc1n[nH]c(C)c1S(=O)(=O)N1CCCC(C(=O)N2CCN(c3ccc(Cl)cc3)CC2)C1` (stereo unspecified), with inactive: -6.59%.
For `CCc1cc(CNC(=O)CC2C(=O)NCCN2Cc2ccc(-c3ccccc3)cc2)on1` (stereo unspecified) the value was inactive: -4.34%; for `O=C(COc1ccc(Cl)cc1Cl)Nc1ccc(C(=O)Nc2ccccc2C(=O)O)cc1`, inactive: -4.74%; for `O=C(Nc1nc(-c2cccs2)c(-c2cccs2)s1)C1CCCC1`, inactive: -9.24%.
Consider `O=C(Nc1nnc(C2CC2)s1)c1ccc(Cl)c(S(=O)(=O)N2CCc3ccccc3C2)c1`, for which the “activity change, negative = inhibition” value is inactive: -3.57%.
Then `CN(c1cccc(Cl)c1)S(=O)(=O)c1cccc(C(=O)NCc2ccncc2)c1`, with inactive: -0.775%.
`Cc1cc(C)cc(N=C2NC(=O)CS2)c1`: the “activity change, negative = inhibition” value was inactive: 4.6%.
Then `O=C(OCn1ncc(Cl)c(Cl)c1=O)c1ccccc1Cl`, with inactive: 0.959%.
Then `Cc1ccc(C(=O)Nc2nc(-c3ccc(F)cc3)cs2)o1`, with inactive: -5.7%; and `Cc1ccc(-n2c(Cl)c(Cl)nc(Cl)c2=O)cc1`, with inactive: -20.4%; and `Cc1ccc(S(=O)(=O)N2CCN(C(=O)CCn3cncn3)CC2)cc1`, with inactive: 3.02%.
For `CC(=O)c1c(O)cc(O)c(C(C)=O)c1O`, the “activity change, negative = inhibition” value is inactive: 2.98%.
For `C=CCOc1c(Cl)cc(CNc2ccc(N(C)C)cc2)cc1OC` the value was inactive: -3.21%.
Then `Cc1ccc(S(=O)(=O)NCCNS(=O)(=O)c2ccc(C)cc2)cc1`, with inactive: 3.85%.
Then `O=C1c2cccc3c(O)ccc(c23)C(=O)N1c1ccc(Cl)cc1`, with inactive: -7.04%; and `COc1ccc(N2CCN(C(=O)[C@H](C)NC(=O)c3ccccc3Cl)CC2)cc1`, with inactive: 2.13%.
For `O=C(CCc1ccccc1)N1CCN(Cc2ccc(F)cc2Cl)CC1`, the “activity change, negative = inhibition” value was inactive: 3.3%.
For `CCOC(=O)C1C(c2cc(OC)c(OC)c(OC)c2)NC(=S)NC1(O)C(F)(F)F` (stereo unspecified) the value was inactive: 1.29%.
